# Measurements from article PMC13324451 (The Journal of Biological Chemistry, 2026).
# Results are given in words; binding and its absence hold for the method and conditions named. Binding seen in cells or lysates may run through a third protein. These calls come from enrichment with a bait or labelling near it, and not all partners need be listed. Sequences can lack the tags named with a protein.
# T1: VgrG3 with a C-terminal haemagglutinin epitope tag (VgrG3-HA) (Chromobacterium violaceum ATCC 12472) (UniProt Q7NY43)
# T1 sequence: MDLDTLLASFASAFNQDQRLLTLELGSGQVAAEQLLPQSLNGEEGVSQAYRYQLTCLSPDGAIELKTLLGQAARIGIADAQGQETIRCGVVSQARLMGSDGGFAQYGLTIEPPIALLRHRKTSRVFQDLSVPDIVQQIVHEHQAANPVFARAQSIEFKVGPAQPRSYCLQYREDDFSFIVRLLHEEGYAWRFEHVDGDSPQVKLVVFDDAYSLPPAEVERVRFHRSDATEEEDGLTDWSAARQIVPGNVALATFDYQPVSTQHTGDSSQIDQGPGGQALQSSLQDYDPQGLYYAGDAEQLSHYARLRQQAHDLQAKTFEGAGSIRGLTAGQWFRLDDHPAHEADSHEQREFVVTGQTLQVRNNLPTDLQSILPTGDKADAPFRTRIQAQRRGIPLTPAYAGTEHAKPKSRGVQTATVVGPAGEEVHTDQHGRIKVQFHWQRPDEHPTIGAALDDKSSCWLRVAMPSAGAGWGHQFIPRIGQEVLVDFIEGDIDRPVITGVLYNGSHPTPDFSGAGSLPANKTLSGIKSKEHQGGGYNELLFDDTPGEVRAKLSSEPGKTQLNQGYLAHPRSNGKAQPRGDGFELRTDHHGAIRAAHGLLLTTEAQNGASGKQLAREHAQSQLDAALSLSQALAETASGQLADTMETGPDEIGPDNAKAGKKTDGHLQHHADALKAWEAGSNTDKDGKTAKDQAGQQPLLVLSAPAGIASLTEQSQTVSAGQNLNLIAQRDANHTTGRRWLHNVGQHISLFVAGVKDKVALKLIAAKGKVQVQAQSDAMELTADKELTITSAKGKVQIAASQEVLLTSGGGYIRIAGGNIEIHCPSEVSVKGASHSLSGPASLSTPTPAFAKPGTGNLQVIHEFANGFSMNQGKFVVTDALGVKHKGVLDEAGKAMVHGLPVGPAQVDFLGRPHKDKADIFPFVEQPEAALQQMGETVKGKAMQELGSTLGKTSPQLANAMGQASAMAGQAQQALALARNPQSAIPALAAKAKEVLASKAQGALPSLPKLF
# B1: Tle1 phospholipase (CV_0012) (protein, UniProt Q7P249 1-512)
# chain: MQDWSDSSFETQMQAAQKRQELHPLLAGCPTCEQKPWISVFFDGTGNNGEIDADKKKWSNIYRLFQGHADDQTRGIFPIYIPGPGTPLSVSNAGWLSKLRDSGALGGGFGLGMDARMDKAFKLFSRNLADCQRVSRIDIAIFGFSRGATLARAWINLLLKECIWEKGKPHWRMLNAKNGVSAEICIRYVGLFDTVESVGMVAKNWSPSQCMTLPNVVERCVHYVSAHELRGAFPLTTVADTAGAPPGEERVWPGMHSDVGGGYRPNEQGRFDTLSRLPLNAMRLDAYLAGVPFLSPAELKGNMVENKHVFDYFEYDAELKNLYDHYKSQISDASSDLDRTIISHMKLYYGWMKLRQDGDIDSLYGKVREERADLAKELENELSDQRKYLRKIPFENLSRKENVEWARLKISDFRKYREKLESARETYGKNFRPYELNSRQLTYWDAWEKSVVPDEKITKFFDFYVHDSRAGFTFNSGDYLEPREVLERKVCSVEPARRGKQIAASNIGVDHQ
# B2: Tle5 phospholipase (CV_1234) (protein, UniProt Q7NYN9 1-656)
# chain: MSQPLAKHKPRQHNVDPSQHQTTRTSTPWFLADDHPVGYKPEFHEVNATFEPLINGERAFGAIYDAILAAKHSVDIVCWGFQPSMYFKRGAGAPPIQYYLQQPQLPPLTADNIDKIADDMAGKLPFTRRKLHPKDKIMPIGELLEMKSLEGVKVRILTWNDPISQIPEVMNPGYNVKRGDNENFLQECYDIGWHQDIRANKNIQFRTRHFDDIDKNAYILPNLVRNGASTMHAAATSKFPSHHQKTVLIDYEHPESALGFVMGHNMLDAYWDRDDHHYVQQEPHLGRNGATARHDISSRLTGPVLVHVNHNFVAGWDKATGENLTGKRAHLELKHFTPRPNLGSRAMAQIARTQSQTRPKGKVKDELTVQDIKHLYLNAVNHACQYIYIENQYFRWVNFAEATKQAVKNQLAFGRDPGQHGPVYLMVVTNDNAEGMGLGVKNTYKMLDALGKRSQMPTLARSSINEQVKQAEREVQIGENQNAKRTSKPLSDLPERRKKLAALKQEQAEANQGKFVDGDIPGLKTHVCSLVSMTGYQQGQPWQYVYIHAKLMMIDDTFMTLGSANINLRSMVCDSEINVCHCQPDITRAARQHLWNMHTVGQGNTADASKPQPLADVYDRWERIMKANQKNRQSKRAPIAPLVKFSNDTSSTKDLD
# B3: VgrG4 (protein, UniProt Q7NYP0 1-963)
# chain: MDLNALLASFASAFSQEQRLISLEFGGGHIASEQLLPLSLDGEEGISRSYRYTLTCLSPDGNIELKTLLGQPARIGIQDADGDETIRCGVVSQAKLAGSDGGFAKYELTIEPPFALLRHRRTSRVFQDLSVPDIVKQIIGEHQAANPAFARVQTLGIQVKPAQPRSYTLQYRESDFDFIVRLIHEEGYAWRFLHLDDDGPQVELAIFDDAHSLPGSKLERVRFHRSDASEEEDGLTGWEAARQIVPGGTALASYDYKSVYALQSGDQSRIDQGQAGQSLQSSLRHYDAPGLYYAGDEEQLGQYAALRQQANDLQAKSFSGTGSVRGLLPGEWFRLDEHPAHDSDAPASREFVVTGQSFQARNNLPTDLAQHIGAEQDAAPFTTSIQAQRRGIPLTPAYAGTAHAKPTSQGAQTATVVGPAGEEVHTDEQGRVKVQFHWQRQEEHPTIGAGMDDKSSCWLRVAMPSAGAAWGHQFIPRIGQEVLVNFIEGDIDRPLITGVLYNGSHPPPDFSGAGALPANKTLSGIKSKEHQGGAYNELLFDDTPGEVRAKLSSELGKTQLNQGFLTHPRSNGKAQPRGEGFELRTDQHGAIRAAHGLLLSTEAQNGASGKQLAREHAQSQLQSAVALSQALAETATGQLADTMETGPDGIGEDNAKAGKKAKGHMQHQLDALAAWEAGSNTDKDGKTAKGQAGQQPQLVLSGPAGIASVTEQSQTLAAGANLNLVVQRDANHTTGRRWVHNVGKHISLFVAGIKDNTAMKLIAAKGKVQILAQSDAMEWTADKDVTITSCKDSITIAAKEEILLNVGGGAYIRLAGGNIEVHCPGTVSVKGAQHNLSGPDKMTVAHPAFPKNIPKQNIGLKVNHSFVEGDHAVPGMPFKLYADGAMIKQGVLDETGHLPVEHNVLTQKYTLELANGIKRHFNMVPSYAKPPHDELANGGINHGEQSDKLDQYQDFFGGKGEQA
# B4: DUF4123 domain-containing protein Tap-1 (CV_3974) (protein, UniProt Q7NR11 1-257)
# chain: MTAPSPEAWLYMLLQTARELELPWLDLIVDQAEMGARWQSRVGALYPPRMLLQDTPHAEAADEGPVLVRLDANQPQTRLLKLLRQWQGQPRVLALFSGWDYDQLAERLTLCMQASWDKGLQQGVLRFHDPRLFAAVVDALDEPRRQLLLEPAVQWHWLDRDGHARMLDATALQSLPPLEWVHDTLTLEQPHIDALACWHLAETWRQNHLLVPQLYGLDSEEELVRRLAQAHQAADKAKLWSEAERIPVVERMLRENA
# B5: Uncharacterized protein (CV_3151) (protein, UniProt Q7NTA8 1-519)
# chain: MTADSIRFELTPPYRHDGKPARFQSLWLLARLHYAAAHEDGMVAVSALRQRFPASRTPRMLVSRAFADFAAWGVEVGWGAPPSESIALLNPDGRSRGPFWLSAAGHARLGFLVDGKPADRRQLELFLGLAPWPSSEPDAARLDTLSHNLDYWSQLTQAIRDERDGMGRLAGPQVAASFHAASLAARNDFQQALALTKESLAWRRSAQFDDSRLALKKLGRVLDGRRFETAQPTFAAMACIARAWDHYARGESVSAEACLGQLLGPGELQPVYRYNPRVRFECLNLGALLHKQAAIAERAPERAEAALRDLAGALEAAYEADSIDAAQHVAANLGWCLWLFWQQQLIDPLRVLRMADMQRLAMRWLGLSEWICDRFGVGNGSAWNVVFLLRIARGDCLHAKRPSLAGFRSAKPFPLQDLRDALALSPCPFSAAKGYRSWAAVAEVTLEEHDQGRLPLTPLQLANLLLETLWFQAWEDGLSRRACGNAQRLKLLLPHLRRSERSFFRAEMAALPPELLESG
# B6: PAAR domain-containing protein (CV_2664) (protein, UniProt Q7NUN3 1-198)
# chain: MENPRIFLHLAPTMSKPIIRLGDKTDHGGTVLEAFPTLVIFGKPAAGVGHKVSCPKCKGTFVIVEGAANTSFMGKNVAIEGMKTSCGATLIASQGQSTINVDSGAAAAVTSSPAQIASALTAASASEKLFDQHFIVHDKNGAPLPNWPYTIELANGHTISGKTDDMGKTSKVSSDAADSVTLHVYEPEPTPINPHWDQ
# B7: PAAR domain-containing protein (CV_2124) (protein, UniProt Q7NW66 1-178)
# chain: MVISAAMKPVIRLGDPTSHGGKVVSASSTTTMFGKAVALVGDSVTCPQQGHTNCVIVEGDPTWTVGGKGVALDGHAVSCGAKLISTLGSVMRSYEGSGAAIVGAAASTSAAIQLAESKDEDLEYFFVAQRDDGSPAKLAYRIDSGDEKLHEGELCGEGKTSAFPMNKAGEPTFWIPMV
# B8: Flagellar biosynthesis protein FlhF (protein, UniProt Q7NZ98 1-479)
# chain: MVVKKFFGKTTRDALRQVREELGADALILSNRPTMGGGVEIMAVADADVANLASTLSTSSSKHPPRNAPPAVNRPQQPAPIPQANGSAMNRAIARTYAMPVEPLESPAPPRLDAAPPRVEPTYAPPQPVAQPLMQPAAQPIPRAAPRPPAPEPAAPHANGEEQEQMAQELRQIGDEIKLLRSLLQSQLASFAWSDMEGKAPNRLELFKHLLAMGFSAQLIRQLIEKMPAQYQAEVAVKWARSALAHNLKCADADREVMDRGGIFALVGPTGVGKTTTVAKLAARATMRFGAQHVALITTDSYRIGAQDQLRIYGKILGVPVFSIQNEGDLQLTLADLSNRHIVFIDTVGMGQRDARVLAQIDMLRTAGRPIERLLLLAANTDGHTLEDVVKRYRGDGLAGCILSKIDEAVAQGPSLDVIIRNRLKLYYVTNGQRVPEDLHSANAAFLVDRAMRAQQIASPFALQADEMSIMQAAQAGWL
# B9: DUF4123 domain-containing protein Tap-1 (CV_0015) (protein, UniProt Q7P246 1-304)
# chain: MSAFRLLVESRLQTLQQGNRAYLLLDGSVLNRKQRKLFSLLPLFADTGLSSVIEDGPQWLDVDTLSDTRWAVLEALLSNFPQPLQLVLSKHELSDLNAHYQRQLDGFDVGNKQLIWFHFYQATVLPILHRELPDEYRAVLFGPVAEWWVLDRGNEWQKLTGDNAGMVINPYRHPFHGEVFPLSAELAQALNDERLTDDVYQWLRHHLPDTLPKIQWHALARIQEMVEYARAAYALTDINAILSWCILAMLTVEDVDQKIPEIAQRMHEAGSGEGVPVNWLTYGLSDPAKVKLEEFFQARKQALM
# Target: T1, VgrG3 with a C-terminal haemagglutinin epitope tag (VgrG3-HA) (Chromobacterium violaceum ATCC 12472)
# Experiment: affinity purification with mass spectrometry; VgrG3-HA precipitated with HA-tag rabbit mAb magnetic beads from the soluble fraction of C. violaceum vgrG3-HA cells (untagged wild type as control); 16 h at 4 °C; 20 mM Tris-Cl pH 7.5, 150 mM NaCl, 0.5 mM EDTA, 0.1% Triton X-100; label-free quantitative MS, biological triplicates
row,Binder,binding
1,B1,binds
2,B2,binds
3,B3,binds
4,B4,binds
5,B5,binds
6,B6,binds
7,B7,binds
8,B8,binds
9,B9,binds
